From US20180207228A1, “PEPTIDE COMBINATIONS AND USES THEREOF FOR TREATING GRASS ALLERGY” (ALK-Abelló A/S, priority 2015, published 2018) come the findings set out here.

Where no end group is shown, it is not given here.

The data set relates to purified class II MHC molecules. The experiment in a line: Competitive MHC class II binding assay (IC50, measured HLA coverage). Set-up: species or system human. Conditions: worldwide population, binding = IC50 below 300 nM.
As for `CC[C@H](C)[C@H](NC(=O)[C@H](C)NC(=O)[C@H](CCCCN)NC(=O)[C@@H](NC(=O)[C@H](CC(C)C)NC(=O)[C@H](C)NC(=O)[C@H](C)NC(=O)[C@H](CCC(=O)O)NC(=O)[C@H](Cc1ccccc1)NC(=O)[C@@H](NC(=O)[C@H](C)NC(=O)[C@H](Cc1ccc(O)cc1)NC(=O)[C@H](CCCCN)NC(=O)[C@@H](NC(=O)[C@H](CCC(=O)O)NC(=O)[C@@H]1CCCN1C(=O)[C@@H](N)CCCCN)C(C)C)C(C)C)[C@@H](C)O)C(=O)N[C@H](C(=O)O)[C@@H](C)O` [peptide 142, reference compound], the “Measured binding coverage 25 alleles” value turned out to be 100%.

Regarding `CC[C@H](C)[C@H](NC(=O)[C@@H](NC(=O)[C@H](CC(=O)O)NC(=O)[C@H](CCC(=O)O)NC(=O)[C@H](C)NC(=O)[C@H](CCC(=O)O)NC(=O)[C@@H](N)[C@@H](C)O)C(C)C)C(=O)N1CCC[C@H]1C(=O)N[C@@H](CCC(=O)O)C(=O)NCC(=O)N[C@@H](Cc1c[nH]c2ccccc12)C(=O)N[C@@H](CCCCN)C(=O)N[C@@H](C)C(=O)N[C@@H](CC(=O)O)C(=O)N[C@H](C(=O)N[C@@H](CO)C(=O)N[C@@H](Cc1ccc(O)cc1)C(=O)N[C@@H](CCC(=O)O)C(=O)N[C@@H](CO)C(=O)N[C@@H](CCCCN)C(=O)O)[C@@H](C)O` [peptide 213], the “Measured binding coverage 25 alleles” value was determined as 58%.

Turning to AGELELQFRRVKSKYPEGTK-OH [peptide 207], the “Measured binding coverage 25 alleles” value was found to be 71%.

AGYTPAAPAGAEPAGKATTE-OH [peptide 228]: the “Measured binding coverage 25 alleles” value is 69%.

For DKYRTFVATFGAASNKAFAE-OH [peptide 231], the “Measured binding coverage 25 alleles” value is recorded as 99%.

Regarding EAKYDAYVATLSEALRIIAG-OH [peptide 233], the “Measured binding coverage 25 alleles” value was 99%.

Take EIKSTKPEASSGEPVVVHIT-OH [peptide 203]: the “Measured binding coverage 25 alleles” value is on record as 71%.

Turning to EQKLIEKINAGFKAALAAAA-OH [peptide 229], the “Measured binding coverage 25 alleles” value was determined as 98%.

On to EWVAMTKGEGGVWTFDSEEP-OH [compound 214], for which the “Measured binding coverage 25 alleles” value was 81%.

Consider FAVVDLNKMRAVWVDGKART-OH [peptide 224], for which the “Measured binding coverage 25 alleles” value is on record as 99%.

In the case of FIPMKSSWGA-OH [compound 135], the “Measured binding coverage 25 alleles” value was 19%.

Turning to GDEQKLRSAGELELQFRRVK-OH [compound 206], the “Measured binding coverage 25 alleles” value is 70%.

GFGMLLRKYGIAAENVIDVK-OH [peptide 225]: the “Measured binding coverage 25 alleles” value worked out at 98%.

Regarding GFKAALAAAAGVPPADKYRT-OH [peptide 230], the “Measured binding coverage 25 alleles” value came out at 92%.

Turning to GRGSGSSFEIKSTKPEASSG-OH [compound 202], the “Measured binding coverage 25 alleles” value is reported as 84%.

As to GSDPKKLVLNIKYTRPGDSL-OH [peptide 217], the “Measured binding coverage 25 alleles” value was determined as 98%.

With HGSEEWEPLTKKGNVWEVKS-OH [compound 218], the “Measured binding coverage 25 alleles” value came to 39%.

Take KDKWIELKESWGAIWRIDTP-OH [peptide 210]: the “Measured binding coverage 25 alleles” value was 92%.

Consider KEDFLGSLVKEIPPRLLYAK-OH [peptide 222], for which the “Measured binding coverage 25 alleles” value is 100%.

As to KFIPTLVAAVKQAYAAKQ-OH [compound 138], the “Measured binding coverage 25 alleles” value amounted to 99%.

With KKPEVKYAVFEAALTKAIT-OH [compound 143], the “Measured binding coverage 25 alleles” value amounted to 99%.

Turning to KSSKPLVGPFNFRFMSKGGM-OH [peptide 220], the “Measured binding coverage 25 alleles” value is recorded as 96%.

As to KSSWGAIWRIDPKKPLK-OH [compound 136], the “Measured binding coverage 25 alleles” value came out at 76%.

For the compound KYDAYVATLTEALR-OH [compound 137], the “Measured binding coverage 25 alleles” value was 98%.

Consider LKKAVTAMSEAEK-OH [compound 139], for which the “Measured binding coverage 25 alleles” value was 62%.

As for LVKYVNGDGDVVAVDIKEKG-OH [peptide 209], the “Measured binding coverage 25 alleles” value was found to be 85%.

In the case of PANDKFTVFEAAFNNAIKAS-OH [compound 70], the “Measured binding coverage 25 alleles” value is 99%.

In the case of PEVKYAVFEAALTKAIT-OH [compound 140], the “Measured binding coverage 25 alleles” value was found to be 99%.

Turning to “SGKAFGAMAKKGQED-OH [compound 134, SGKAFGAMAKKGQED]”, the “Measured binding coverage 25 alleles” value stood at 47%.

Consider SMGDDHFWAVRGGGGESFGI-OH [peptide 226], for which the “Measured binding coverage 25 alleles” value was found to be 57%.

For STGGAYESYKFIPALEAAVK-OH [compound 71], the “Measured binding coverage 25 alleles” value is reported as 99%.

Turning to TDDNEEPIAPYHFDLSGHAF-OH [peptide 204], the “Measured binding coverage 25 alleles” value came to 78%.

Consider TKKGNVWEVKSSKPLVGPFN-OH [peptide 219], for which the “Measured binding coverage 25 alleles” value is on record as 91%.

Take TPFPHRKGVLFNIQYVNYWF-OH [peptide 227]: the “Measured binding coverage 25 alleles” value stood at 97%.

As for TSKLDAAYKLAYKTAEGATP-OH [peptide 232], the “Measured binding coverage 25 alleles” value was determined as 93%.

With VATLSEALRIIAGTLEVHAV-OH [compound 67], the “Measured binding coverage 25 alleles” value turned out to be 94%.

As for VRYTTEGGTKTEAEDVIPEG-OH [peptide 212], the “Measured binding coverage 25 alleles” value came to 40%.

Consider WGAIWRIDTPDKLTGPFTVR-OH [peptide 211], for which the “Measured binding coverage 25 alleles” value is on record as 90%.

On to WLDAKSTWYGKPTGAGPKDN-OH [peptide 201], for which the “Measured binding coverage 25 alleles” value was 47%.

For YHFDLSGHAFGAMAKKGDEQ-OH [peptide 205], the “Measured binding coverage 25 alleles” value worked out at 88%.

Regarding YIITPTNVSHIQSAVVSGRR-OH [peptide 223], the “Measured binding coverage 25 alleles” value is 99%.
